Results as given in the supplement of paper PMC10849652.
The list shows a part of the results.

Sequences of proteins named here, by UniProt entry; tags and fusion partners are left off. A change or cut given only in a name is not applied to a line headed by its entry.
UniProt Q9UHX3: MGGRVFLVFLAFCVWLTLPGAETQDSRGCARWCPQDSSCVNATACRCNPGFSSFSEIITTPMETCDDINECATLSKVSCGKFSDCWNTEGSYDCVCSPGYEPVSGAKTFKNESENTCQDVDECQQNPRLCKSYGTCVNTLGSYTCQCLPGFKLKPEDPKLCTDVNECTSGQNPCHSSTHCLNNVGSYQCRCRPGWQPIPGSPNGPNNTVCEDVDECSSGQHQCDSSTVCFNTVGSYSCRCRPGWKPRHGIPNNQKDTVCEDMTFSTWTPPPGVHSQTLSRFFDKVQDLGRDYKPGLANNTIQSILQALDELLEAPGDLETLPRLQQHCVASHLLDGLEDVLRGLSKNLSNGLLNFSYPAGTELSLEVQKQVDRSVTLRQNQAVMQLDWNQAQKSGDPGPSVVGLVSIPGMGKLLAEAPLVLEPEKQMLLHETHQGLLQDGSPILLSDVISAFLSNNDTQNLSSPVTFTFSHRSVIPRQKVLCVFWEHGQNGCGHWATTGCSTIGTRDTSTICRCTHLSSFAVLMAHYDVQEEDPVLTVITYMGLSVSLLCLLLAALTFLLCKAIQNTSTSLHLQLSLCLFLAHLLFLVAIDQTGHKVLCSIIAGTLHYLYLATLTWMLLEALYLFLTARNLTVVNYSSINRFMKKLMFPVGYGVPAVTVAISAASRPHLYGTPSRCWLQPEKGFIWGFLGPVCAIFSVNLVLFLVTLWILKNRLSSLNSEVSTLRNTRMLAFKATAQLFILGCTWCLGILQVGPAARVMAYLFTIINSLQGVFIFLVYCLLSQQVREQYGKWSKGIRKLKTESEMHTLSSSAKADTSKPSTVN
UniProt Q99943: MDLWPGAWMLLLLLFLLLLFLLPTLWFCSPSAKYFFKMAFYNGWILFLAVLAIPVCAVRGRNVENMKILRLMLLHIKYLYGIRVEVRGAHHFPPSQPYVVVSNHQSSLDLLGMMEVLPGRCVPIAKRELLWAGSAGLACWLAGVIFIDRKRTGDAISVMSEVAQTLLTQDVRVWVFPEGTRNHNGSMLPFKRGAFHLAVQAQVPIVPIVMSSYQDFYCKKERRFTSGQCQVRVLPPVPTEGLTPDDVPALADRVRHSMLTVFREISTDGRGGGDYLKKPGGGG
UniProt O14734: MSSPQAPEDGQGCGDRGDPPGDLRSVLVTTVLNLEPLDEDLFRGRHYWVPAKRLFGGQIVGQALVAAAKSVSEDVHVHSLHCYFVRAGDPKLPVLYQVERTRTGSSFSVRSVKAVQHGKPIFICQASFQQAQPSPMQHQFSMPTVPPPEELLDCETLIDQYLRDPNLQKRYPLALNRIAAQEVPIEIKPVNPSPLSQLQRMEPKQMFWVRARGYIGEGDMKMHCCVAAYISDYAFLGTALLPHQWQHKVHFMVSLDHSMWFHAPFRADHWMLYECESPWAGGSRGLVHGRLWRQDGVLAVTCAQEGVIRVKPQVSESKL
UniProt Q13155: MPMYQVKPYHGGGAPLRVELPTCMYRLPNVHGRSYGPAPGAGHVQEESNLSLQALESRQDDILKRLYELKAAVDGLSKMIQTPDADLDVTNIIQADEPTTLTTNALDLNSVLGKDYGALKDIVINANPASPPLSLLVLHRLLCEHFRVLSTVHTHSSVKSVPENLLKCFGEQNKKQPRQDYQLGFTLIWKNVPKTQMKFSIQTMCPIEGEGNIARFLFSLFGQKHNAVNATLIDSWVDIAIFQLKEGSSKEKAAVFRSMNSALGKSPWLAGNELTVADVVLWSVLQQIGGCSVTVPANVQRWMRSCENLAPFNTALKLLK
UniProt Q5TGY3: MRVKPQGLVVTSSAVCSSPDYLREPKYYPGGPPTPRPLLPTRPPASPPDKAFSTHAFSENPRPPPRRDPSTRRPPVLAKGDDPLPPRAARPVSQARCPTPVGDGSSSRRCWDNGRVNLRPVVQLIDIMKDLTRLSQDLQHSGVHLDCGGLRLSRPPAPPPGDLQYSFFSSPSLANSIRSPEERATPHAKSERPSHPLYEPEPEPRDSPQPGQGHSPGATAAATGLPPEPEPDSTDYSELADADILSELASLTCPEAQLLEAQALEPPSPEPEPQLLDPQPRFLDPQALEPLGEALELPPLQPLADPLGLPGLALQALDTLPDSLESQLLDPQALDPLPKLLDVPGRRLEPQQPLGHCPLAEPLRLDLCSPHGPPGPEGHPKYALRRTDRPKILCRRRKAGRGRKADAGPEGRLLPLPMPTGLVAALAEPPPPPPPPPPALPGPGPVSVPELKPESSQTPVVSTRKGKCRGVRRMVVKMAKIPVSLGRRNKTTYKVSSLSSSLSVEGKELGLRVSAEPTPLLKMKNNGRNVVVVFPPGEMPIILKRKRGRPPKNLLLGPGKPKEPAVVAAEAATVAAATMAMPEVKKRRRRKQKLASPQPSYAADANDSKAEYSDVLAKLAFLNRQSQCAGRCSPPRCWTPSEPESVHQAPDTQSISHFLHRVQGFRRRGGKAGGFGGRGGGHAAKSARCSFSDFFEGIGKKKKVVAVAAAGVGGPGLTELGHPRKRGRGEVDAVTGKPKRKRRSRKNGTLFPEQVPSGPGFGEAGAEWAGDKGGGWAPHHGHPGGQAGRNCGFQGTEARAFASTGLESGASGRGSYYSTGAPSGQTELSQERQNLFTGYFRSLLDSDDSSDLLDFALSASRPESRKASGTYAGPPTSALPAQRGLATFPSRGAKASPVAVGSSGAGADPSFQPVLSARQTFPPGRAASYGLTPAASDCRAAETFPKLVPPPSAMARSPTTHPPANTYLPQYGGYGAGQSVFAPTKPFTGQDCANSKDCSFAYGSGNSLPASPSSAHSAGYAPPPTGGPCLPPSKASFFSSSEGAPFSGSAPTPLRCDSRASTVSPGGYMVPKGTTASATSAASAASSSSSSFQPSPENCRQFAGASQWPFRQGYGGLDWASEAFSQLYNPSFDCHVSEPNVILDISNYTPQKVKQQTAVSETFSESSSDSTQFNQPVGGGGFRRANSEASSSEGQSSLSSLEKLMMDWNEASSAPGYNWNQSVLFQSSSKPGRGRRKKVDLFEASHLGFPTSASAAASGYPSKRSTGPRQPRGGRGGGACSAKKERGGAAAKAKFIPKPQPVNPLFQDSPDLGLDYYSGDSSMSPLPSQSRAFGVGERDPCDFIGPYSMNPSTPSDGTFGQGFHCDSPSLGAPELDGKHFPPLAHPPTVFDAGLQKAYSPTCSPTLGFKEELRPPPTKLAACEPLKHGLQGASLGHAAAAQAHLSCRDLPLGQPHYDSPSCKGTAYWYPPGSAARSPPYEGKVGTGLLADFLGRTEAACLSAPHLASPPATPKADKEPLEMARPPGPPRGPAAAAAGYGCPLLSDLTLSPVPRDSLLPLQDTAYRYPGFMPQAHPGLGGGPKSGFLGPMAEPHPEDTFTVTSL
UniProt O43488: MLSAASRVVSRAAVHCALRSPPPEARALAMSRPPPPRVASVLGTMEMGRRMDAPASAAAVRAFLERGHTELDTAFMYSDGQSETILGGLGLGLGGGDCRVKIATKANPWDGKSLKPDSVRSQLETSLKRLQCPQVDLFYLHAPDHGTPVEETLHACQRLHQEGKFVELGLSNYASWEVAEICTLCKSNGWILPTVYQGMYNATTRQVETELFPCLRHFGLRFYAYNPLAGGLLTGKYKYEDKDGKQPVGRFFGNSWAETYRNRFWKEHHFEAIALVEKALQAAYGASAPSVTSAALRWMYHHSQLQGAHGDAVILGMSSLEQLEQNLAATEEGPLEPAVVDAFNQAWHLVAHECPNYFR
UniProt Q9Y6K8: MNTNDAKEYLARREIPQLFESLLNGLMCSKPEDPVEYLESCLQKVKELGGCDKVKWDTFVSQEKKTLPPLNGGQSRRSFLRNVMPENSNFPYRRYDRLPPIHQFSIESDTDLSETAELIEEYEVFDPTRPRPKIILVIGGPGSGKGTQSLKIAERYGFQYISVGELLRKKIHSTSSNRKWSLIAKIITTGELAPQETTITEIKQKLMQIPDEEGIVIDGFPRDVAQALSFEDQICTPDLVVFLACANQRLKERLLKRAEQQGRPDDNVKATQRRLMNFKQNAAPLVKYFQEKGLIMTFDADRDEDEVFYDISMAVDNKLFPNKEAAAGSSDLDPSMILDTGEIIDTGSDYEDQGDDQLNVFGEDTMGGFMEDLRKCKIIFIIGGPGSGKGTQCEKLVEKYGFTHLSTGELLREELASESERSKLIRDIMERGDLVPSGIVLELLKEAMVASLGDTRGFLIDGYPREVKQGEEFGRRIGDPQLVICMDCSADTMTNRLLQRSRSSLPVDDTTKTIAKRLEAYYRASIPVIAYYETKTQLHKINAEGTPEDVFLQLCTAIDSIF
UniProt Q7Z6V5: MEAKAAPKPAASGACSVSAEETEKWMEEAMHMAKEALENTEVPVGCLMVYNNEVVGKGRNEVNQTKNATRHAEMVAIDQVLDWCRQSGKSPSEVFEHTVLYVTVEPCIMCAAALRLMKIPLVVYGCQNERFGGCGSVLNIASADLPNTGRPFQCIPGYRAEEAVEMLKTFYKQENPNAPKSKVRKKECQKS
UniProt Q9Y305: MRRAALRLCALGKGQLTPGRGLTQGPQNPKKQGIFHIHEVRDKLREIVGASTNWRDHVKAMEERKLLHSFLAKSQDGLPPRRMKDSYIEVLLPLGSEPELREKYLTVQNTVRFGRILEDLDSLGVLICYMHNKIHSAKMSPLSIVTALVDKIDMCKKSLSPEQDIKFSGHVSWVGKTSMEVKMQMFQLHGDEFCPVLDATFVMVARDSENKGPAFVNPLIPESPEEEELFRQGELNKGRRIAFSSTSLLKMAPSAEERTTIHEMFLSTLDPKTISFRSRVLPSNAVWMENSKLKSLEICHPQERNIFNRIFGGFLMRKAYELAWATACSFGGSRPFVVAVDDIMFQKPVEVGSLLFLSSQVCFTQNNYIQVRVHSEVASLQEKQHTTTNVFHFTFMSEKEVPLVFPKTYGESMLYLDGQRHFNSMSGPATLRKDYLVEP
UniProt Q96P47: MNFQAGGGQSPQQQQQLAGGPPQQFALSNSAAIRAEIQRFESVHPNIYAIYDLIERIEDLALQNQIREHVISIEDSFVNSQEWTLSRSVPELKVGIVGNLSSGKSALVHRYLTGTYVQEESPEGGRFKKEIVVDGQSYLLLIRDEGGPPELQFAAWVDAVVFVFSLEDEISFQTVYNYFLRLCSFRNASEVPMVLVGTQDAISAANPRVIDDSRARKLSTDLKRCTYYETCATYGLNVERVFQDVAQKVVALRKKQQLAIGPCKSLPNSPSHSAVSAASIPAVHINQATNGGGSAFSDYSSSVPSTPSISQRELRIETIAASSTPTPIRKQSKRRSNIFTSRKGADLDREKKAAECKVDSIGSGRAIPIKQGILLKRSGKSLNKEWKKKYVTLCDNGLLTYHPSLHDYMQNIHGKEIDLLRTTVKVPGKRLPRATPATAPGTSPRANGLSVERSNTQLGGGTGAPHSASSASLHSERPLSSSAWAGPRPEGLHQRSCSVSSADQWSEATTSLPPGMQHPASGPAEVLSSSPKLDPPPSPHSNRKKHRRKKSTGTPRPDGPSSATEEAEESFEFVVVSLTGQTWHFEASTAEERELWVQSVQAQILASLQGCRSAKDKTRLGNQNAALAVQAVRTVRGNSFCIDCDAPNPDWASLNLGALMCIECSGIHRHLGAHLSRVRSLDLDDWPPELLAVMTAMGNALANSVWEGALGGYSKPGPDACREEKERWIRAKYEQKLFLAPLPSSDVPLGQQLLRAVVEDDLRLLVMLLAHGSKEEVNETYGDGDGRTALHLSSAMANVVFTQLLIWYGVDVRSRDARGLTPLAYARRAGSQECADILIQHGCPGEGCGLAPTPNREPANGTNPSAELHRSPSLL
UniProt O14672: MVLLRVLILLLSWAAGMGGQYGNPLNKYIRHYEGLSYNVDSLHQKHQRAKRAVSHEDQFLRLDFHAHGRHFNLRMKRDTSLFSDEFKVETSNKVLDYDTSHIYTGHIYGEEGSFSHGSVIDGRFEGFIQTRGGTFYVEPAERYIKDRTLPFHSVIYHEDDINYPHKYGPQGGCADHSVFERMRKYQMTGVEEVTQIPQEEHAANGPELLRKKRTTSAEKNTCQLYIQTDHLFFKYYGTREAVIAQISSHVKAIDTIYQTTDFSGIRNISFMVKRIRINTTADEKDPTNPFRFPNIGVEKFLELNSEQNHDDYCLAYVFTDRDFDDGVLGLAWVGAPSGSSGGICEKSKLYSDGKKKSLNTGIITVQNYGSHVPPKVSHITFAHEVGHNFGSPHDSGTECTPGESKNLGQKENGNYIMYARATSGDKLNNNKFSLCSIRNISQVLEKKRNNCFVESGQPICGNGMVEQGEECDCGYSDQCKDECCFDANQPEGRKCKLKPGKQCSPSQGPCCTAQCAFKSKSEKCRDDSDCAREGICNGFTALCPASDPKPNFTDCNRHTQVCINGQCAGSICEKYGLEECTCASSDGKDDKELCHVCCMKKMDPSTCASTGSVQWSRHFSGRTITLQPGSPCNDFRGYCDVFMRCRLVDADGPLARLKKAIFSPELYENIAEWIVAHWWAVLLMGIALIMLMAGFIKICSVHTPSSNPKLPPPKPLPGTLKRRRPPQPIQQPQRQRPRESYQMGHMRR

What was measured:
Experiment in all cases: log2 fold change, soluble protein after heating vs DMSO (PISA); higher = thermal stabilisation; K562 lysate, 10 uM; active = over 0.2 and 3.5 SD of the protein, either way, in both replicates (recomputed)
[1] = compound: C1=CC=C(C=C1)[C@H](COC2=CC3=C(C=C2)NC(=O)N3)NC(=O)C4=CC=CN(C4=O)CC5=CC(=C(C=C5)F)F
Summary of the method: (§1)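 A 30 min treatment with 10 μM compound was applied to crude K562 extract at 1 mg/mL protein in PBS pH 7.4 with 1 mM MgCl2. Heating for 3 min spanned 48°C-58°C, after which aliquots were pooled, adjusted to 0.5% NP-40 at 4°C and spun at 21,000xg for 90 min. TMTpro 16plex LC-MS/MS of the supernatant, with channel sums equalised, gave values recorded as log-two fold change in thermal stability against solvent controls, from duplicates.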

[2] = compound: CC1=C(SC2=C1C(=N[C@H](C3=NN=C(N32)C)CC(=O)N)C4=CC=C(C=C4)Cl)C
Summary of the method: as §1

[3] = compound: CC1=C2C(=CC=C1)N=C(N(C2=O)C3=CC=CC=C3C)CN4C=NC5=C(N=CN=C54)N
Summary of the method: as §1

[4] = compound: Cc1sc2c(c1C)C(c1ccc(Cl)cc1)=N[C@@H](CC(=O)OC(C)(C)C)c1nnc(C)n1-2
Summary of the method: as §1

[5] = compound: c1ccc([C@@H]2C[C@H]2NC2CCNCC2)cc1
Summary of the method: as §1

Measured: log2 fold change

ACSS3 (UniProt Q9H6R3)
inactive: [1] 0.166 | [2] 0.069

ADGRE2 (UniProt Q9UHX3)
inactive: [1] -0.072 | [2] -0.117 | [3] -0.053 | [4] -0.056 | [5] 0.087

AGPAT1 (UniProt Q99943)
inactive: [1] -0.04 | [2] 0.024 | [3] 0.089 | [4] -0.038 | [5] -0.134

ADD2 (UniProt P35612)
inactive: [1] 0.007 | [2] 0.018 | [3] 0 | [4] -0.017 | [5] -0.034

AGO4 (UniProt Q9HCK5)
inactive: [1] 0.014 | [2] 0.022 | [3] 0.001 | [4] -0.011 | [5] -0.07

ADNP (UniProt Q9H2P0)
inactive: [1] 0.049 | [2] -0.001 | [3] -0.008 | [4] 0.02 | [5] -0.051

ADAT1 (UniProt Q9BUB4)
inactive: [1] 0.108 | [2] -0.019

ACOT8 (UniProt O14734)
inactive: [1] 0.019 | [2] 0.005 | [3] 0.014 | [4] 0.156 | [5] -0.014

AGO2 (UniProt Q9UKV8)
inactive: [1] 0.011 | [2] -0.036 | [3] -0.002 | [4] -0.041 | [5] 0

AIMP2 isoform 2 (UniProt Q13155)
inactive: [1] 0.182 | [2] 0.029

ADK, A0A5F9ZH76
inactive: [1] -0.136 | [2] 0.197

ADAR isoform 4 (UniProt P55265)
inactive: [1] -0.188 | [2] 0.116 | [3] 0.035 | [4] 0.005 | [5] 0.032

AHCYL1 (UniProt O43865)
inactive: [1] -0.011 | [2] -0.003 | [3] -0.011 | [4] 0.034 | [5] 0.006

ACTR2 (UniProt P61160)
inactive: [1] 0.021 | [2] 0.004 | [3] 0.005 | [4] 0 | [5] -0.007

Quoted from the listing (2 entries):
AHCYL1 (UniProt O43865)
inactive: [1] -0.011 | [2] -0.003 | [3] -0.011 | [4] 0.034 | [5] 0.006

ACTR2 (UniProt P61160)
inactive: [1] 0.021 | [2] 0.004 | [3] 0.005 | [4] 0 | [5] -0.007

Carrying on.

AK2 (UniProt P54819)
inactive: [1] 0.046 | [2] -0.013 | [3] 0.01 | [4] 0.051 | [5] -0.015

ACTR3B (UniProt Q9P1U1)
inactive: [1] 0.015 | [2] 0.089 | [3] 0.063 | [4] -0.009 | [5] -0.055

AHDC1 (UniProt Q5TGY3)
inactive: [1] -0.71 | [2] -0.278

AGPS (UniProt O00116)
inactive: [1] -0.103 | [2] 0.016 | [3] 0.035 | [4] 0.019 | [5] -0.006

AKR7A2 (UniProt O43488)
inactive: [1] 0 | [2] 0.019 | [3] 0.024 | [4] 0.027 | [5] 0.025

ACYP1 (UniProt P07311)
inactive: [1] 0.019 | [2] -0.026 | [3] -0.036 | [4] 0.022 | [5] 0.052

ADIPOR2 (UniProt Q86V24)
inactive: [1] -0.1 | [2] 0.11 | [3] -0.103 | [4] 0.048

ACTR3 (UniProt P61158)
inactive: [1] 0.049 | [2] -0.026 | [3] 0.012 | [4] 0.024 | [5] 0.018

AK5 (UniProt Q9Y6K8)
inactive: [1] -0.021 | [2] 0.022 | [3] -0.047 | [4] -0.005

AGL (UniProt P35573)
inactive: [1] 0.022 | [2] 0.028 | [3] 0.036 | [4] 0.035 | [5] 0.086

AKR1B1 (UniProt P15121)
inactive: [1] 0.015 | [2] 0.066 | [3] 0.059 | [4] -0.146 | [5] -0.049

ADIPOR1 (UniProt Q96A54)
inactive: [1] -0.046 | [2] -0.01 | [3] -0.033 | [4] -0.056 | [5] 0.005

AIFM1 (UniProt O95831)
inactive: [1] -0.008 | [2] 0.013 | [3] -0.012 | [4] 0.03 | [5] 0.052

AKAP1 (UniProt Q92667)
inactive: [1] -0.004 | [2] 0.044 | [3] 0.009 | [4] -0.03 | [5] -0.001

ADAT2 (UniProt Q7Z6V5)
inactive: [1] 0.007 | [2] 0.064 | [3] -0.009 | [4] 0.004 | [5] -0.025

ADD1 isoform 4 (UniProt P35611)
inactive: [1] 0.22 | [2] 0.088 | [3] 0.12 | [4] -0.099 | [5] -0.571

AKR1C2 (UniProt P52895)
inactive: [1] -0.012 | [2] 0.047 | [3] 0.047 | [4] -0.184 | [5] -0.107

ACTB (UniProt C9JUM1)
inactive: [1] -0.127 | [2] 0.041

ACOT7 isoform 7 (UniProt O00154)
inactive: [1] 0.022 | [2] -0.017 | [3] -0.009 | [4] -0.03 | [5] -0.017

ACOT9 isoform 4 (UniProt Q9Y305)
inactive: [1] 0.023 | [2] -0.018 | [3] 0.067 | [4] 0.011 | [5] 0.1

ADO (UniProt Q96SZ5)
inactive: [1] 0.032 | [2] 0.028 | [3] 0.024 | [4] 0.003 | [5] -0.021

Pulled one by one from the entries so far, 3 records:
AKR1C2 (UniProt P52895)
inactive: [1] -0.012 | [2] 0.047 | [3] 0.047 | [4] -0.184 | [5] -0.107

ADO (UniProt Q96SZ5)
inactive: [1] 0.032 | [2] 0.028 | [3] 0.024 | [4] 0.003 | [5] -0.021

ACOT9 isoform 4 (UniProt Q9Y305)
inactive: [1] 0.023 | [2] -0.018 | [3] 0.067 | [4] 0.011 | [5] 0.1

Additional records:

AGAP3 isoform 4 (UniProt Q96P47)
inactive: [1] -0.04 | [2] 0.02 | [3] 0.024 | [4] -0.013 | [5] 0.056

ACTBL2 (UniProt Q562R1)
inactive: [1] 0.138 | [2] -0.194 | [3] -0.016 | [4] 0.106 | [5] 0.365

ADPGK (UniProt Q9BRR6)
inactive: [1] -0.02 | [2] 0.032 | [3] 0.059 | [4] 0.012 | [5] -0.014

ACSM3 (UniProt Q53FZ2)
inactive: [1] 0.034 | [2] 0.007 | [3] -0.066 | [4] 0.002 | [5] 0.021

AIDA (UniProt Q96BJ3)
inactive: [1] 0.001 | [2] 0.003 | [3] -0.026 | [4] -0.133 | [5] -0.13

ADPRH (UniProt P54922)
inactive: [1] -0.045 | [2] -0.098 | [3] -0.016 | [4] -0.035 | [5] 0.021

ACTB (UniProt C9JTX5)
inactive: [1] -0.222 | [2] 0.044 | [3] 0.115 | [4] 0.055 | [5] 0.433

ACTA1 (UniProt P68133)
inactive: [1] -0.009 | [2] 0.006 | [3] 0.019 | [4] -0.02 | [5] -0.013

AKAP11 (UniProt Q9UKA4)
inactive: [1] 0.025 | [2] -0.008 | [3] 0.059 | [4] -0.041 | [5] -0.012

ADSS2 (UniProt P30520)
inactive: [1] 0.01 | [2] 0.009 | [3] 0 | [4] -0.008 | [5] -0.019

ACP1 isoform 2 (UniProt P24666)
inactive: [1] 0.022 | [2] 0.013 | [3] 0.066 | [4] 0.006 | [5] -0.005

AGO3 (UniProt Q9H9G7)
inactive: [1] -0.018 | [2] 0.031 | [3] 0.053 | [4] -0.044 | [5] -0.022

ACY1 (UniProt Q03154)
inactive: [1] -0.011 | [2] 0.007 | [3] -0.017 | [4] -0.003 | [5] -0.004

AFDN isoform 1 (UniProt P55196)
inactive: [1] -0.013 | [2] 0.019 | [3] -0.008 | [4] -0.001 | [5] 0.044

ACTL8 (UniProt Q9H568)
inactive: [1] 0.072 | [2] 0.029 | [3] -0.041 | [4] -0.042 | [5] 0.013

ACSL3 (UniProt O95573)
inactive: [1] -0.115 | [2] 0.045 | [3] 0.025 | [4] 0.023 | [5] -0.004

AKAP12 (UniProt Q02952)
inactive: [1] 0.203 | [2] -0.26 | [3] 0.004 | [4] -0.138 | [5] -0.204

ADAM10 (UniProt O14672)
inactive: [1] -0.003 | [2] -0.012 | [3] -0.014 | [4] -0.03 | [5] -0.058

ACTR5 (UniProt Q9H9F9)
inactive: [1] 0.035 | [2] -0.038 | [3] -0.104 | [4] 0.003 | [5] 0.125

ADK (UniProt P55263)
inactive: [1] 0.059 | [2] -0.035 | [3] 0.051 | [4] -0.036 | [5] -0.133

ADD1 isoform 3 (UniProt P35611)
inactive: [1] 0.03 | [2] 0.016 | [3] -0.01 | [4] -0.021 | [5] 0.015
